Experimental data as given in PubChem BioAssay AID504444 (National Center for Advancing Translational Sciences (NCATS), 2011).
Among all 360,000 compounds or so, about 7,500 (2.1%) were called active. This list was built around the results that the source calls inconclusive (neither active nor inactive); the mix of calls is not that of the screen. The call rests on the fitted dose curve; in most records, active means well fitted inhibition curve with a large enough effect; inconclusive means small, poorly fitted or top-dose-only effect, or effect the other way; inactive means flat fitted curve, though single readings scatter. A potency beside an inconclusive call is a rough fit, not a confirmed value.

Assay: Nrf2 qHTS screen for inhibitors; further: nearly all actives have a fitted effect of over 60% in size
Details: A549 ARE-Fluc reporter, luciferase luminescence, 18-24 h; series mostly up to 46 µM
In short: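 Cells were seeded and rested 2 h, then exposed to compounds for 18-24 h. CellTiter-Fluor was read first as a viability measure. BugLite was added 15 min before the final luminescent read of ARE-luciferase activity in A549 cells.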
Potency means the concentration at half of the fitted maximal effect.

| SMILES | Potency |
| --- | --- |
| CCOC(=O)c1nc2nc(-c3cccs3)cc(C(F)(F)F)n2n1 | inactive |
| Cc1nc(Nc2ccc(S(N)(=O)=O)cc2)sc1-c1ccccc1 | inconclusive: 13 µM [activator, partial curve, poor fit] |
| CCC(Nc1ncnc2ccc(-c3c(C)noc3C)cc12)c1ccccc1 (stereo unspecified) | inconclusive: 16.4 µM [falling, partial curve, poor fit] |
| O=C(Nc1cccc(NC(=O)c2cccc([N+](=O)[O-])c2)n1)c1cccc([N+](=O)[O-])c1 | inconclusive: 0.259 µM [falling, full curve] |
| COc1ccc(NC(=O)c2sc(Cl)nc2-c2ccccc2)cc1 | inconclusive: 23.1 µM [activator, single point] |
| COc1ccc2nc(NC(=O)C3CC(=O)N(c4ccc5c(c4)OCCO5)C3)sc2c1 (stereo unspecified) | inconclusive: 29.1 µM [falling, single point] |
| O=C(Nc1ccc2c(c1)OCCO2)C1CCN(S(=O)(=O)c2ccccc2)CC1 | inconclusive: 20.6 µM [falling, single point] |
| Cc1ccc(CNC(=O)C(=O)NCC(c2cccnc2)N2CCN(c3ccc(F)cc3)CC2)cc1 (stereo unspecified) | inactive |
| NC(=O)c1cc2ccncc2c2ccccc12 | inconclusive: 20.6 µM [falling, partial curve, poor fit] |
| COc1ccc(Cl)cc1NC(=O)CN(C)C(C)C(=O)NCC1CCCCC1 (stereo unspecified) | inconclusive: 14.6 µM [falling, partial curve, poor fit] |
| Cc1ccccc1CNC(=O)Cn1ccc2cc(S(=O)(=O)N3CCCCC3)ccc21 | inconclusive: 20.6 µM [falling, partial curve, poor fit] |
| O=C(COC(=O)c1oc2ccccc2c1CSc1ccc(Cl)cc1)NC1CCCC1 | inconclusive: 29.1 µM [falling, single point] |
| COC(=O)N1CCN(c2ccc(OC)cc2)CC1 | inactive |
| CCOc1ccc(C(=O)CSc2nc3cc(C(=O)NC4CCCC4)ccc3c(=O)n2CC2CCCO2)cc1 (stereo unspecified) | inconclusive: 18.4 µM [activator, partial curve] |
| O=S(=O)(c1cccc(F)c1)N1CCC(CO)(Cc2cccc(F)c2)CC1 | inconclusive: 23.1 µM [falling, partial curve, poor fit] |
| Cc1[nH]c2ccccc2c1C(=O)CCl | inactive |
| COc1ccc([N+](=O)[O-])cc1NC(=O)Nc1cccc(Cl)c1 | inconclusive: 6.51 µM [falling, partial curve] |
| CCOC(=O)N1CCN(Cc2ccccc2Cl)CC1 | inconclusive: 0.0326 µM [falling, full curve, poor fit] |
| Cc1cc(-n2nnc3ccccc32)nc2ccccc12 | inconclusive: 16.4 µM [activator, partial curve, poor fit] |
| CC1(NC(=S)Nc2ccc(NC(=S)NC3(C)CCS(=O)(=O)C3)cc2)CCS(=O)(=O)C1 (stereo unspecified) | inconclusive: 0.0259 µM [falling, full curve] |
| Cc1ccc(-c2nc3cc(N)ccc3o2)cc1Br | inconclusive: 10.3 µM [activator, partial curve] |
| O=C1c2ccccc2NC(c2cccc([N+](=O)[O-])c2)N1CCc1ccccc1 (stereo unspecified) | inconclusive: 29.1 µM [activator, single point] |

| SMILES | Potency |
| --- | --- |
| Cc1cccc(NC(=O)Cn2cc(C(=O)C3CCCCC3)c3ccccc32)c1C | active: 5.8 µM |
| COCCn1nnnc1C(c1cc2ccc(C)cc2[nH]c1=O)N(Cc1ccco1)Cc1cccs1 (stereo unspecified) | inconclusive: 32.6 µM [falling, partial curve, poor fit] |
| Cc1cccc(N(C(=O)c2snc(C(N)=O)c2N)C(C(=O)NC2CCCC2)c2ccc(C)o2)c1 (stereo unspecified) | inconclusive: 2.31 µM [activator, single point] |
| COc1ccc(Cc2nnc(NC(=O)C3CCN(C(=O)c4ccco4)CC3)s2)cc1 | inconclusive: 25.9 µM [falling, partial curve] |
| Cc1cccc(C2c3[nH]c4ccccc4c3CCN2C(=O)c2ccc(=O)[nH]c2)n1 (stereo unspecified) | inconclusive: 4.61 µM [falling, single point] |
| COc1ccc(O)c(C(=O)/C=C/c2cc3ccccc3o2)c1 | inconclusive: 7.31 µM [falling, partial curve, poor fit] |
| COCCCNC(=O)Cn1cc(/C=C(\C#N)C(=O)N2CCN(c3ccccc3)CC2)c2ccccc21 | inconclusive: 20.6 µM [falling, partial curve, poor fit] |
| O=c1oc2ccccc2c(Nc2ccc(F)cc2)c1[N+](=O)[O-] | inactive |
| N#Cc1ccccc1NC(=O)CSc1ncn[nH]1 | inactive |
| Brc1ccc(-c2csc(Nc3nc(-c4ccc(Br)cc4)cs3)n2)cc1 | inactive |
| CCCCOc1ccc(C(=O)NCc2ccncc2)cc1 | inconclusive: 4.61 µM [falling, partial curve, poor fit] |
| CCOC(=O)N1CCN(C(=O)c2ccc(CS(=O)(=O)c3ccccc3OC)o2)CC1 | inactive |
| CC(=O)c1cccc(OC(=O)c2ccccc2)c1 | inactive |
| O=C(Cn1cc(SCc2ccccc2F)c2ccccc21)N1CCCCCC1 | inconclusive: 25.9 µM [falling, single point] |
| O=C(N/N=C/c1cccc(Cl)c1)C1CCCC1 | inconclusive: 32.6 µM [activator, partial curve, poor fit] |
| COc1ccccc1CNC(=O)C1CCC(CNC(=O)[C@@H]2Cc3ccccc3CN2)CC1 (stereo partly specified) | inconclusive: 29.1 µM [falling, single point] |
| CCOc1ccccc1NC(=O)N1CCC(NC(=O)C2CCCCC2)CC1 | inconclusive: 25.9 µM [falling, partial curve, poor fit] |
| CCOC(=O)c1ccc(Nc2nc3nonc3nc2Nc2cccc(C)c2C)cc1 | active: 2.31 µM |
| O=C(COC(=O)/C=C/c1ccco1)NC1CCCCC1 | inactive |
| N=c1ccn2c(n1)O[C@H]1[C@H](O)[C@@H](CO)O[C@H]12 | active: 0.184 µM |
| CCn1c(SCC(=O)N2CCN(c3ccc(Cl)cc3)CC2)nc2ccccc2c1=O | inconclusive: 29.1 µM [falling, single point] |
| Oc1ccc2ccccc2c1/C=N/Nc1nnc(-c2ncc[nH]2)c2ccccc12 | active: 5.17 µM |

| SMILES | Potency |
| --- | --- |
| CCOC(=O)c1c(C)nc2sc3c(=O)n(-c4ccc(C(C)=O)cc4)nnc3c2c1-c1ccc(OC)cc1 | active: 14.6 µM |
| CCCCCOC(=O)Cc1c(C)nc(-c2ccccc2)[nH]c1=O | inconclusive: 29.1 µM [activator, single point] |
| Cc1cc(N/C=C\c2nnnn2-c2ccc(F)cc2)no1 | inconclusive: 23.1 µM [activator, single point] |
| Nc1nc(-c2ccccc2)c(-c2ccc([N+](=O)[O-])cc2)s1 | inconclusive: 8.2 µM [falling, partial curve, poor fit] |
| COc1ccc(S(=O)(=O)N2CCOC23CCN(S(=O)(=O)c2c(C)cc(C)cc2C)CC3)cc1 | inconclusive: 29.1 µM [falling, partial curve, poor fit] |
| Cc1ccc(C(=O)OCc2cc(=O)n3nc(-c4cccs4)sc3n2)cc1 | inconclusive: 10.3 µM [activator, partial curve, poor fit] |
| O=C(Nc1cccc(Cl)c1)NC1CCCCC1 | inconclusive: 25.9 µM [falling, single point] |
| CC(=C/c1ccccc1)/C=N/NC(=O)c1cnccn1 | inactive |
| C=CCn1ccc(=NC=C(C#N)C#N)c2ccccc21 | inconclusive: 25.9 µM [falling, single point] |
| Cc1c(OCC(F)(F)F)ccnc1CSc1nc2ccccc2[nH]1 | inactive |
| O=C(CSc1nc2ccccc2c(=O)[nH]1)Nc1ccc(S(=O)(=O)N2CCCC2)cc1 | inconclusive: 18.4 µM [falling, single point] |
| O=C(NCCNC(=O)c1ccc(Cl)cc1Cl)c1ccco1 | inconclusive: 4.61 µM [falling, full curve] |
| CCOC(=O)c1c(C)n(OCc2ccccc2)c2ccc3nonc3c12 | inconclusive: 32.6 µM [falling, single point] |
| Cc1ccc(C)c(N2CCN(C(=O)c3cc4c(=O)n(Cc5cccs5)ccc4nc3C)CC2)c1 | inconclusive: 29.1 µM [falling, single point] |
| NC(N)=Nc1nc(C2COc3ccccc3O2)cs1 (stereo unspecified) | inconclusive: 0.231 µM [activator, full curve, poor fit] |
| O=S(=O)(c1ccccc1)N1CCN(CCc2ccccc2)CC1 | inconclusive: 29.1 µM [falling, single point] |
| Cc1ccc(-c2nc3cccnc3o2)cc1NC(=O)COc1ccc(Cl)cc1C | inconclusive: 3.26 µM [falling, partial curve, poor fit] |
| CC(C)C(NS(=O)(=O)c1cccc2nsnc12)C(=O)NC1CCCCC1 (stereo unspecified) | inconclusive: 3.66 µM [falling, partial curve, poor fit] |
| Cc1onc(-c2ccccc2Cl)c1C(=O)OCC(=O)Nc1cccc(S(=O)(=O)N(C)C)c1 | inconclusive: 29.1 µM [falling, single point] |
| O=C(Nc1ccccc1)N1CCCN(c2ccc(C(F)(F)F)cn2)CC1 | inconclusive: 29.1 µM [falling, single point] |
| Cc1sc2ncnc(SCC(=O)N3CCCCC3)c2c1C | inconclusive: 25.9 µM [falling, partial curve, poor fit] |
| Cc1cc(NC(=O)c2ccccc2C)no1 | inconclusive: 14.6 µM [activator, partial curve, poor fit] |

Six of the compounds above, bar-delimited.
SMILES | Potency
COc1ccc(S(=O)(=O)N2CCOC23CCN(S(=O)(=O)c2c(C)cc(C)cc2C)CC3)cc1 | inconclusive: 29.1 µM [falling, partial curve, poor fit]
Cc1ccc(C(=O)OCc2cc(=O)n3nc(-c4cccs4)sc3n2)cc1 | inconclusive: 10.3 µM [activator, partial curve, poor fit]
O=C(CSc1nc2ccccc2c(=O)[nH]1)Nc1ccc(S(=O)(=O)N2CCCC2)cc1 | inconclusive: 18.4 µM [falling, single point]
Cc1ccc(C)c(N2CCN(C(=O)c3cc4c(=O)n(Cc5cccs5)ccc4nc3C)CC2)c1 | inconclusive: 29.1 µM [falling, single point]
NC(N)=Nc1nc(C2COc3ccccc3O2)cs1 (stereo unspecified) | inconclusive: 0.231 µM [activator, full curve, poor fit]
O=S(=O)(c1ccccc1)N1CCN(CCc2ccccc2)CC1 | inconclusive: 29.1 µM [falling, single point]
